Source: PubChem BioAssay AID652243 (Drosophila RNAi Screening Center, 2013)
The screen tested about 24,000 reagents; shown is an unselected part of those that have a named target and a result. In the full data, 246 (1%) were called active. 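Plates not normalised; calls are printed but the firefly/Renilla ratio behind them is not deposited; fold cut for lowering reported inconsistently.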 Raw values vary from plate to plate and are shown uncorrected. A plus sign joins genes that one reagent is predicted to hit. Reagent sequences are not shown. Not stated in the record: the amount of reagent.

- Purpose: 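Fly regulators of androgen-dependent reporter output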 (primary screen)
- Cell system: Drosophila S2R+ cells
- Reagents: long dsRNA against Drosophila genes
- Timing: 72 h (48 h, then 24 h hormone)
- Conditions: synthetic androgen R1881 at 10 nM for 24 h
- Read-out: 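Per-well raw luminescence of the androgen-driven firefly reporter and of the Renilla control, two replicates each, without normalisation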
- Direction: firefly reporter light: higher = more light from androgen-responsive reporter; Renilla control light: higher = more constitutive control signal (cell number, transfection)
- Active means: 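Across duplicate plates, a knock-down whose log firefly/Renilla ratio shifted a set fold down or up from the GFP/LacZ control mean was a hit; the downward cut appears as both 1.5 and 3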
- Meaning of the calls: active = hit: reporter lowered or raised; inactive = no hit

The first 4 records as a preview:
gene knocked down | dsRNA | firefly reporter light, replicate 1 | firefly reporter light, replicate 2 | Renilla control light, replicate 1 | Renilla control light, replicate 2 | call
CG11656 | DRSC14338 | 38266 | 41025 | 3.43e5 | 3.54e5 | inactive
CG11656 | DRSC28955 | 1.04e6 | 9.16e5 | 1.93e6 | 1.25e6 | inactive
CG2772 | DRSC00530 | 1.52e5 | 1.09e5 | 8.81e5 | 6.20e5 | inactive
CG2772 | DRSC27114 | 6.09e5 | 2.93e5 | 8.82e5 | 3.21e5 | inactive

The list itself, repeating the preview:
gene knocked down | dsRNA | firefly reporter light, replicate 1 | firefly reporter light, replicate 2 | Renilla control light, replicate 1 | Renilla control light, replicate 2 | call
CG11656 | DRSC14338 | 38266 | 41025 | 3.43e5 | 3.54e5 | inactive
CG11656 | DRSC28955 | 1.04e6 | 9.16e5 | 1.93e6 | 1.25e6 | inactive
CG2772 | DRSC00530 | 1.52e5 | 1.09e5 | 8.81e5 | 6.20e5 | inactive
CG2772 | DRSC27114 | 6.09e5 | 2.93e5 | 8.82e5 | 3.21e5 | inactive
CG3565 | DRSC04389 | 4.13e5 | 7.66e5 | 7.30e5 | 1.01e6 | inactive
Sbat (Sabbat) | DRSC00160 | 3.33e5 | 1.25e5 | 8.57e5 | 5.08e5 | inactive
Nepl3 (Neprilysin-like 3) | DRSC02681 | 9.48e5 | 1.65e6 | 1.28e6 | 1.93e6 | inactive
CG11674 | DRSC19414 | 98361 | 1.16e5 | 4.51e5 | 3.41e5 | inactive
Gr89a (Gustatory receptor 89a) | DRSC15023 | 1.15e5 | 1.28e5 | 1.37e6 | 1.99e6 | inactive
CG15710 | DRSC06581 | 63319 | 80104 | 1.33e6 | 1.33e6 | inactive
MsR1 (Myosuppressin receptor 1) | DRSC08615 | 62587 | 1.14e5 | 1.06e6 | 1.00e6 | inactive
MsR1 (Myosuppressin receptor 1) | DRSC26467 | 3.38e5 | 1.96e5 | 5.91e5 | 3.94e5 | inactive
P5cr-2 (Pyrroline-5-carboxylate reductase-like 2) | DRSC15889 | 67474 | 94719 | 1.32e6 | 1.05e6 | inactive
Upf2 | DRSC18218 | 3.04e5 | 2.76e5 | 2.58e6 | 2.01e6 | inactive
Upf2 | DRSC27785 | 2.35e5 | 2.09e5 | 3.83e5 | 7.14e5 | inactive
PhKgamma (Phosphorylase kinase gamma) | DRSC20268 | 1.02e5 | 92045 | 1.18e6 | 8.37e5 | inactive
PhKgamma (Phosphorylase kinase gamma) | DRSC27226 | 2.32e5 | 2.63e5 | 6.57e5 | 7.13e5 | inactive
PhKgamma (Phosphorylase kinase gamma) | DRSC36681 | – | – | – | – | inactive
CR31054 (pseudo) | DRSC22134 | 5.52e5 | 5.46e5 | 2.50e6 | 2.36e6 | inactive
Tnpo (Transportin) | DRSC11309 | 4.36e5 | 4.99e5 | 9.58e5 | 1.27e6 | inactive
Tnpo (Transportin) | DRSC25104 | 2.11e5 | 1.86e5 | 5.79e5 | 3.63e5 | inactive
ninaE (neither inactivation nor afterpotential E) | DRSC17014 | 3.19e5 | 2.93e5 | 3.53e6 | 3.12e6 | inactive
ninaE (neither inactivation nor afterpotential E) | DRSC25724 | 4.38e5 | 4.01e5 | 4.56e5 | 4.95e5 | inactive
CG1428 | DRSC03708 | 1.89e5 | 2.31e5 | 1.46e6 | 1.29e6 | inactive
Gr5a (Gustatory receptor 5a) | DRSC18085 | 3.91e5 | 3.51e5 | 2.33e6 | 2.06e6 | inactive
CG9581 | DRSC20695 | 5.44e5 | 4.20e5 | 3.23e6 | 3.15e6 | inactive
CG9581 | DRSC22247 | 9.03e5 | 8.92e5 | 2.27e6 | 1.74e6 | inactive
CG14220 | DRSC19577 | 59437 | 57986 | 2.56e5 | 2.05e5 | inactive
CG14220 | DRSC26345 | 2.80e5 | 1.98e5 | 5.88e5 | 7.55e5 | inactive
CG10194 | DRSC02025 | 9.51e5 | 5.93e5 | 2.16e6 | 2.01e6 | inactive
CG11581 | DRSC19407 | 1.06e6 | 9.11e5 | 4.77e6 | 4.65e6 | inactive
CG15155 | DRSC02456 | 2.24e5 | 4.62e5 | 1.62e6 | 2.47e6 | inactive
glob3 (globin 3) | DRSC12261 | 41546 | 32991 | 6.24e5 | 7.62e5 | inactive
CG13917 | DRSC08386 | 6.03e5 | 5.33e5 | 1.83e6 | 1.65e6 | inactive
CG13917 | DRSC26895 | 3.11e5 | 3.05e5 | 8.93e5 | 8.08e5 | inactive
Hyccin | DRSC06983 | 3.64e5 | 5.15e5 | 7.46e5 | 6.91e5 | inactive
CG11842 | DRSC14400 | 1.83e5 | 1.12e5 | 1.11e6 | 6.59e5 | inactive
CG11842 | DRSC24924 | 1.22e6 | 1.17e6 | 1.21e6 | 1.19e6 | inactive
CG33770 | DRSC11717 | 3.07e5 | 2.35e5 | 2.37e6 | 2.03e6 | inactive
CG31415 | DRSC22409 | 3.44e5 | 8.09e5 | 1.48e6 | 1.78e6 | inactive
Rpn2 (Regulatory particle non-ATPase 2) | DRSC16839 | 62975 | 79130 | 6.78e5 | 5.61e5 | inactive
DNaseII (Deoxyribonuclease II) | DRSC16310 | 23027 | 28631 | 2.84e5 | 4.06e5 | inactive
RpL39 (Ribosomal protein L39) | DRSC04651 | 3.30e5 | 3.26e5 | 1.53e6 | 1.73e6 | inactive
asRNA:CR43470 + CG14830 | DRSC10200 | 2.33e5 | 1.10e5 | 1.88e6 | 9.76e5 | inactive
asRNA:CR43470 + CG14830 | DRSC26586 | 4.89e5 | 4.13e5 | 5.52e5 | 6.61e5 | inactive
Wnt4 (Wnt oncogene analog 4) | DRSC00976 | 84656 | 35202 | 2.53e5 | 3.08e5 | inactive
Wnt4 (Wnt oncogene analog 4) | DRSC03477 | 2.08e5 | 2.00e5 | 1.74e6 | 1.38e6 | inactive
mRpL21 (mitochondrial ribosomal protein L21) | DRSC11100 | 2.80e5 | 1.92e5 | 2.98e6 | 1.46e6 | inactive
alc (alicorn) | DRSC07062 | 3.53e5 | 3.14e5 | 3.13e6 | 2.90e6 | active
alc (alicorn) | DRSC21464 | 6.30e5 | 5.51e5 | 1.87e6 | 1.66e6 | inactive
alc (alicorn) | DRSC23316 | 5.26e5 | 6.45e5 | 1.34e6 | 1.23e6 | inactive
CG14780 | DRSC18566 | 2.99e5 | 2.97e5 | 3.62e6 | 3.30e6 | inactive
MCTS1 (Malignant T cell amplified sequence 1) | DRSC18393 | 98266 | 88156 | 1.15e6 | 6.77e5 | inactive
PNUTS (Phosphatase 1 nuclear targeting subunit) | DRSC00638 | 3.77e5 | 5.04e5 | 2.62e6 | 2.44e6 | active
PNUTS (Phosphatase 1 nuclear targeting subunit) | DRSC23503 | 2.64e5 | 2.88e5 | 6.64e5 | 6.40e5 | active
Sf3a1 (Splicing factor 3a subunit 1) | DRSC15166 | 84590 | 54763 | 5.70e5 | 5.11e5 | inactive
dpr3 (defective proboscis extension response 3) | DRSC00395 | 68015 | 42880 | 3.27e5 | 3.10e5 | inactive
dpr3 (defective proboscis extension response 3) | DRSC00396 | 93470 | 56146 | 7.81e5 | 5.78e5 | inactive
